Article PMC10702442, “Arabidopsis thaliana Phytocystatin 6 Forms Functional Oligomer and Amyloid Fibril States” (Biochemistry, 2023)
Results are given in words; binding and its absence hold for the method and conditions named.

How the values were obtained:
[1] = target: AtCYT6-CTD, the isolated C-terminal cystatin domain of AtCYT6 (Arabidopsis thaliana) (UniProt Q8H0X6); assay: cross-linking; 0.175% (w/v) glutaraldehyde, protein at 0.3 mg/mL in 20 mM citric acid pH 5.5, 100 mM NaCl, room temperature, 1, 5 and 10 min, read by SDS-PAGE; both purified
[2] = target: AtCYT6-CTD, the isolated C-terminal cystatin domain of AtCYT6 (Arabidopsis thaliana) (UniProt Q8H0X6); assay: SEC; Superdex 75, 500 uL of protein at up to 2 mg/mL, 20 mM Tris pH 7.5, 50 mM NaCl, nonreducing, room temperature; both purified

binding [1]: no binding (tested: 0.3 mg/mL) | binding [2]: no binding (tested: 2 mg/mL)
B1: AtCYT6-CTD, the isolated C-terminal cystatin domain of AtCYT6 (domain or fragment, UniProt Q8H0X6 141-234)
chain: GEHESGWREVPGDDPEVKHVAEQAVKTIQQRSNSLFPYELLEVVHAKAEVTGEAAKYNMLLKLKRGEKEEKFKVEVHKNHEGALHLNHAEQHHD
